The record followed here is patent publication US20100256056A1 (published 2010).

This data set in a line: general procedure: Boc solid-phase peptide synthesis; 4-Methylbenzhydrylamine (MBHA) resin (Peninsula), 0.91 mmol/g; HBTU/DIEA. As to conditions: whole synthesis, analytical HPLC, scale of the general procedure 0.20 mmol.

Turning to “(Aib^2, Nle^14, β-Ala^29) Exendin-4(1-39)NH2”, the “final purity (method not given)” value stood at 98.0%.
